Paper PMC5371313

The chains behind the UniProt entries cited, without tags or fusion partners.
UniProt P35609: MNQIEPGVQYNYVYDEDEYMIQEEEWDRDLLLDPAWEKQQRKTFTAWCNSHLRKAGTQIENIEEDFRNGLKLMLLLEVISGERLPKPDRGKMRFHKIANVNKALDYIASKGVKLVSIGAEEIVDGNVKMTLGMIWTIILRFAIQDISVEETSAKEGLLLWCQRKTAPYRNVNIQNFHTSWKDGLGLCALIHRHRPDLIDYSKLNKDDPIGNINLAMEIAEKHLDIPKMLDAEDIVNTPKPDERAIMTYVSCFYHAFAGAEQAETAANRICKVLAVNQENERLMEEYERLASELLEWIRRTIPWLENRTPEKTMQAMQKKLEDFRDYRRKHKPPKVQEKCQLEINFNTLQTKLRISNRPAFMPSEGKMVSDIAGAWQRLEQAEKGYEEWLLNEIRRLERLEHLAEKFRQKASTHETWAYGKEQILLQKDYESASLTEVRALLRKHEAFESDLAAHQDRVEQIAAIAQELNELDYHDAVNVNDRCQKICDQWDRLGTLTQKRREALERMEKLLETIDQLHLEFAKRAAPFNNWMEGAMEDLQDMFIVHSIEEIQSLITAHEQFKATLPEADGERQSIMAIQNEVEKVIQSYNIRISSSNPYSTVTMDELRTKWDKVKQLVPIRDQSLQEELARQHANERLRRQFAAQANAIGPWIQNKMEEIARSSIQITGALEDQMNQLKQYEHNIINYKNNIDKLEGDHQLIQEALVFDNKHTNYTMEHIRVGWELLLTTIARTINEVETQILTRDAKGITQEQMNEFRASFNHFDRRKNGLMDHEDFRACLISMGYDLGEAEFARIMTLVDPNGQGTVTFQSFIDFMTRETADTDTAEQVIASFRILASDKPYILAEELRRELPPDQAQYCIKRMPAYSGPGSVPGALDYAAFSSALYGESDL
UniProt P08670: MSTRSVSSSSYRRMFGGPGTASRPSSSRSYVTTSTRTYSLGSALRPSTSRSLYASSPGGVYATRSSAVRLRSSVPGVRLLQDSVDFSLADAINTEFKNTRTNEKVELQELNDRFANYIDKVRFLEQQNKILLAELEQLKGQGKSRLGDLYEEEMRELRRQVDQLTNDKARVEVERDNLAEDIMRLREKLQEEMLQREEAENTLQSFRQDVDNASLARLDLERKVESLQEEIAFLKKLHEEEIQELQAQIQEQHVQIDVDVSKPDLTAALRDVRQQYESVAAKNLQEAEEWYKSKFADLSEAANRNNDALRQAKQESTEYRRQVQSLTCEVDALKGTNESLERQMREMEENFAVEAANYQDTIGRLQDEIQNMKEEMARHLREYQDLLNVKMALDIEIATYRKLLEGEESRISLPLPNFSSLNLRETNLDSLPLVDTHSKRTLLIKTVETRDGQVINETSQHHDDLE

T1: Annexin A1 (human (endogenous in 6-10B)) (UniProt P04083)
T1 sequence: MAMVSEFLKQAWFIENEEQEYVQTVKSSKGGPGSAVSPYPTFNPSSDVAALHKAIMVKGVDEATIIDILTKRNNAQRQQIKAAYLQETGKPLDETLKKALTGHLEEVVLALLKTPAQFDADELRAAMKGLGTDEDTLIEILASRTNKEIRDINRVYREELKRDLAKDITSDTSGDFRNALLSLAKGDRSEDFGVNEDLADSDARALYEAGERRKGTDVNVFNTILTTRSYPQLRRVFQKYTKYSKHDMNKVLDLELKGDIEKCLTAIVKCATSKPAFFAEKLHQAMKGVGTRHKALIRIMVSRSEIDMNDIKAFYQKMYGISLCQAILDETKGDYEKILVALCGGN

B1: S100A9 (protein, UniProt P06702 1-114)
chain: MTCKMSQLERNIETIINTFHQYSVKLGHPDTLNQGEFKELVRKDLQNFLKKENKNEKVIEHIMEDLDTNADKQLSFEEFIMLMARLTWASHEKMHEGDEGPGHHHKPGLGEGTP

What follows are molecules tested against T1, Annexin A1 (human (endogenous in 6-10B)) (assay: affinity purification with mass spectrometry; 6-10B NPC cell lysate precleared, immunoprecipitated with anti-Annexin A1 antibody overnight, Protein G agarose 4 h at 4°C, washed three times with PBS; SDS-PAGE, in-gel trypsin digestion, 2DLC-MS/MS; non-immune IgG as negative control; three replicates).

Molecule	binding
α-actinin 2 (from UniProt P35609 1-894)	binds
Vimentin (from UniProt P08670 1-466)	binds
B1	binds

No constants are given. Whether binding was seen depends on the method and setting. Binding seen in cells or lysates may run through a third protein. A yes stands for co-enrichment or nearness to the bait. Other partners may have been found.
